Values of other authors as cited in patent publication US7294637B2 (Sepracor, Inc., priority 2000, dated 2007).
At least one compound was matched to its structure with a doubt left.

Test system: dopamine transporter
Settings: in vitro; cited from earlier work

In the case of `Fc1ccc(C(OCCN2CCN(CCCc3ccccc3)CC2)c2ccc(F)cc2)cc1` [GBR12909], the methamphetamine-induced dopamine release is given as “significantly reduces”.
